Assay results as given in ChEMBL document CHEMBL5674883, “The Heterochromatin Landscape in Migrating Cells and the Importance of H3K27me3 for Associated Transcriptome Alterations” (Cells, 2018).
This continues a long series; more values of the same kind are listed elsewhere.

Protein sequences, listed by entry. Tags and fused reporters are not part of them.
UniProt Q61188, whole entry: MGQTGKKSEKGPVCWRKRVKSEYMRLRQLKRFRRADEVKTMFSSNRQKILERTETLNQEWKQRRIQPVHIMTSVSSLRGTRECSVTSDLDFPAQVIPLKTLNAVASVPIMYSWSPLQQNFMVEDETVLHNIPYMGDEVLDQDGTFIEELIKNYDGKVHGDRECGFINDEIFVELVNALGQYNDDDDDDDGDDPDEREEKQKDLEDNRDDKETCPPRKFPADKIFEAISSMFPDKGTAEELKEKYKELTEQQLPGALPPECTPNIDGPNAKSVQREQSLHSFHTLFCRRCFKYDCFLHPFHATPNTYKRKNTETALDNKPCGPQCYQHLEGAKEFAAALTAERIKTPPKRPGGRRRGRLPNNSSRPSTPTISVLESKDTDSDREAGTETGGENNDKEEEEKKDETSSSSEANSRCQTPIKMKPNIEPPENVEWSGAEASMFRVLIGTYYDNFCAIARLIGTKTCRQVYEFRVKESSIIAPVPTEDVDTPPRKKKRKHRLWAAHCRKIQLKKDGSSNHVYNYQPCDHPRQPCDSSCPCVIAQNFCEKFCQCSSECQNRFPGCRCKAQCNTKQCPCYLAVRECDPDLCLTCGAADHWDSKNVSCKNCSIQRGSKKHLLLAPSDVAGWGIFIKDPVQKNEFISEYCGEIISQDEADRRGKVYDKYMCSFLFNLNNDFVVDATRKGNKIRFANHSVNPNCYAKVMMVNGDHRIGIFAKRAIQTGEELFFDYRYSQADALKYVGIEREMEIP

Legend:
Type in all cases: cell-based
[1] = molecular target: Histone-lysine N-methyltransferase EZH2 (Mus musculus) (UniProt Q61188); assay: Inhibition of EZH2 in mouse B16-F1 migrating cells assessed as fold change in H3K27me3-dependent regulated Smad7-mRNA expression at 3 uM measured by ChIP-seq analysis relative to control cells
[2] = molecular target: Histone-lysine N-methyltransferase EZH2 (Mus musculus) (UniProt Q61188); assay: Inhibition of EZH2 in mouse B16-F1 migrating cells assessed as fold change in H3K27me3-dependent regulated Ero1l-mRNA expression at 3 uM measured by ChIP-seq analysis relative to control cells
[3] = molecular target: Histone-lysine N-methyltransferase EZH2 (Mus musculus) (UniProt Q61188); assay: Inhibition of EZH2 in mouse B16-F1 migrating cells assessed as fold change in H3K27me3-dependent regulated Mbnl3-mRNA expression at 3 uM measured by ChIP-seq analysis relative to control cells
[4] = molecular target: Histone-lysine N-methyltransferase EZH2 (Mus musculus) (UniProt Q61188); assay: Inhibition of EZH2 in mouse B16-F1 migrating cells assessed as fold change in H3K27me3-dependent regulated Glt1d1-mRNA expression at 3 uM measured by ChIP-seq analysis relative to control cells
[5] = molecular target: Histone-lysine N-methyltransferase EZH2 (Mus musculus) (UniProt Q61188); assay: Inhibition of EZH2 in mouse B16-F1 migrating cells assessed as fold change in H3K27me3-independent regulated Mpp2-mRNA expression at 3 uM measured by ChIP-seq analysis relative to control cells
[6] = molecular target: Histone-lysine N-methyltransferase EZH2 (Mus musculus) (UniProt Q61188); assay: Inhibition of EZH2 in mouse B16-F1 migrating cells assessed as fold change in H3K27me3-independent regulated Pak3-mRNA expression at 3 uM measured by ChIP-seq analysis relative to control cells
[7] = molecular target: Histone-lysine N-methyltransferase EZH2 (Mus musculus) (UniProt Q61188); assay: Inhibition of EZH2 in mouse B16-F1 migrating cells assessed as fold change in H3K27me3-independent regulated Dok5-mRNA expression at 3 uM measured by ChIP-seq analysis relative to control cells
[8] = molecular target: Histone-lysine N-methyltransferase EZH2 (Mus musculus) (UniProt Q61188); assay: Inhibition of EZH2 in mouse B16-F1 migrating cells assessed as fold change in H3K27me3-independent regulated Esco2-mRNA expression at 3 uM measured by ChIP-seq analysis relative to control cells
[9] = molecular target: Histone-lysine N-methyltransferase EZH2 (Mus musculus) (UniProt Q61188); assay: Inhibition of EZH2 in mouse B16-F1 migrating cells assessed as fold change in H3K27me3-buffered regulated Ccdc65-mRNA expression at 3 uM measured by ChIP-seq analysis relative to control cells
[10] = molecular target: Histone-lysine N-methyltransferase EZH2 (Mus musculus) (UniProt Q61188); assay: Inhibition of EZH2 in mouse B16-F1 migrating cells assessed as fold change in H3K27me3-buffered regulated Zfp963-mRNA expression at 3 uM measured by ChIP-seq analysis relative to control cells
[11] = molecular target: Histone-lysine N-methyltransferase EZH2 (Mus musculus) (UniProt Q61188); assay: Inhibition of EZH2 in mouse B16-F1 migrating cells assessed as fold change in H3K27me3-buffered regulated Chchd10-mRNA expression at 3 uM measured by ChIP-seq analysis relative to control cells
[12] = molecular target: Histone-lysine N-methyltransferase EZH2 (Mus musculus) (UniProt Q61188); assay: Inhibition of EZH2 in mouse B16-F1 migrating cells assessed as fold change in H3K27me3-buffered regulated Krt80-mRNA expression at 3 uM measured by ChIP-seq analysis relative to control cells
[13] = molecular target: Histone-lysine N-methyltransferase EZH2 (Mus musculus) (UniProt Q61188); assay: Inhibition of EZH2 in mouse B16-F1 migrating cells assessed as fold change in H3K27me3-buffered regulated Cpeb2-mRNA expression at 3 uM measured by ChIP-seq analysis relative to control cells
[14] = molecular target: Histone-lysine N-methyltransferase EZH2 (Mus musculus) (UniProt Q61188); assay: Inhibition of EZH2 in mouse B16-F1 migrating cells assessed as fold change in H3K27me3-buffered regulated Ccdc88a-mRNA expression at 3 uM measured by ChIP-seq analysis relative to control cells
[15] = molecular target: Histone-lysine N-methyltransferase EZH2 (Mus musculus) (UniProt Q61188); assay: Inhibition of EZH2 in mouse B16-F1 migrating cells assessed as fold change in H3K27me3-buffered regulated Adamts4-mRNA expression at 3 uM measured by ChIP-seq analysis relative to control cells
[16] = molecular target: Histone-lysine N-methyltransferase EZH2 (Mus musculus) (UniProt Q61188); assay: Inhibition of EZH2 in mouse B16-F1 migrating cells assessed as fold change in H3K27me3-buffered regulated Nsl1-mRNA expression at 3 uM measured by ChIP-seq analysis relative to control cells
[17] = molecular target: Histone-lysine N-methyltransferase EZH2 (Mus musculus) (UniProt Q61188); assay: Inhibition of EZH2 in mouse B16-F1 migrating cells assessed as fold change in H3K27me3-buffered regulated Mest-mRNA expression at 3 uM measured by ChIP-seq analysis relative to control cells
[18] = molecular target: T1, RNA polymerase II (Mus musculus) (UniProt P08775+Q8CFI7+P97760+A0A3Q4L2S8+Q80UW8+P61219+P62488+Q923G2+P60898+O08740+Q63871+P62876); assay: Inhibition of RNA polymerase II in mouse B16-F1 migrating cells assessed as fold change in Ndufv3-RNA stability at 0.1 mM measured by ChIP-seq analysis relative to control cells
[19] = molecular target: T1, RNA polymerase II (Mus musculus); assay: Inhibition of RNA polymerase II in mouse B16-F1 migrating cells assessed as fold change in Egln3-RNA stability at 0.1 mM measured by ChIP-seq analysis relative to control cells
[20] = molecular target: T1, RNA polymerase II (Mus musculus); assay: Inhibition of RNA polymerase II in mouse B16-F1 migrating cells assessed as fold change in Gpi1-RNA stability at 0.1 mM measured by ChIP-seq analysis relative to control cells
[21] = molecular target: T1, RNA polymerase II (Mus musculus); assay: Inhibition of RNA polymerase II in mouse B16-F1 migrating cells assessed as fold change in Coq8b-RNA stability at 0.1 mM measured by ChIP-seq analysis relative to control cells
[22] = molecular target: T1, RNA polymerase II (Mus musculus); assay: Inhibition of RNA polymerase II in mouse B16-F1 migrating cells assessed as fold change in Slc35c2-RNA stability at 0.1 mM measured by ChIP-seq analysis relative to control cells
[23] = molecular target: T1, RNA polymerase II (Mus musculus); assay: Inhibition of RNA polymerase II in mouse B16-F1 migrating cells assessed as fold change in Ccdc47-RNA stability at 0.1 mM measured by ChIP-seq analysis relative to control cells
[24] = molecular target: T1, RNA polymerase II (Mus musculus); assay: Inhibition of RNA polymerase II in mouse B16-F1 migrating cells assessed as fold change in Krr1-RNA stability at 0.1 mM measured by ChIP-seq analysis relative to control cells
[25] = molecular target: T1, RNA polymerase II (Mus musculus); assay: Inhibition of RNA polymerase II in mouse B16-F1 migrating cells assessed as fold change in Cir1-RNA stability at 0.1 mM measured by ChIP-seq analysis relative to control cells
[26] = molecular target: T1, RNA polymerase II (Mus musculus); assay: Inhibition of RNA polymerase II in mouse B16-F1 migrating cells assessed as fold change in Wbp4-RNA stability at 0.1 mM measured by ChIP-seq analysis relative to control cells
[27] = molecular target: T1, RNA polymerase II (Mus musculus); assay: Inhibition of RNA polymerase II in mouse B16-F1 migrating cells assessed as fold change in Gls-RNA stability at 0.1 mM measured by ChIP-seq analysis relative to control cells
[28] = molecular target: T1, RNA polymerase II (Mus musculus); assay: Inhibition of RNA polymerase II in mouse B16-F1 migrating cells assessed as fold change in Zfp748-RNA stability at 0.1 mM measured by ChIP-seq analysis relative to control cells
[29] = molecular target: T1, RNA polymerase II (Mus musculus); assay: Inhibition of RNA polymerase II in mouse B16-F1 migrating cells assessed as fold change in Tssk4-RNA stability at 0.1 mM measured by ChIP-seq analysis relative to control cells
[30] = molecular target: T1, RNA polymerase II (Mus musculus); assay: Inhibition of RNA polymerase II in mouse B16-F1 migrating cells assessed as fold change in Rif1-RNA stability at 0.1 mM measured by ChIP-seq analysis relative to control cells

## CCCc1cc(C)[nH]c(=O)c1CNC(=O)c1cc(-c2ccnc(N3CCN(C)CC3)c2)cc2c1cnn2C(C)C
[1]
  log2FC: 0.38
[2]
  log2FC: 0.36
[3]
  log2FC: -0.42
[4]
  log2FC: -0.49
[5]
  log2FC: 0.55
[6]
  log2FC: 0.79
[7]
  log2FC: 0.77
[8]
  log2FC: -0.54
[9]
  log2FC: 0.82
[10]
  log2FC: 0.74
[11]
  log2FC: 0.46
[12]
  log2FC: 0.41
[13]
  log2FC: -0.41
[14]
  log2FC: -0.49
[15]
  log2FC: -0.5
[16]
  log2FC: -0.51
[17]
  log2FC: -0.61

## OC[C@H]1O[C@@H](n2cnc3cc(Cl)c(Cl)cc32)[C@H](O)[C@@H]1O
[18]
  log2FC: 0.89
[19]
  log2FC: 0.79
[20]
  log2FC: 0.67
[21]
  log2FC: 0.57
[22]
  log2FC: 0.52
[23]
  log2FC: -0.5
[24]
  log2FC: -0.59
[25]
  log2FC: -0.69
[26]
  log2FC: -0.69
[27]
  log2FC: -0.69
[28]
  log2FC: -0.85
[29]
  log2FC: -0.88
[30]
  log2FC: -1.01
